This assay concerns the target ZAP-L-FL (FLAG-tagged ZAP-L) (human) (UniProt Q7Z2W4). Nature of the assay: affinity purification with mass spectrometry; ZAP-L-FL or empty vector transfected in 293T; IP with α-FLAG agarose from whole cell lysates (sonication) in the presence or absence of 30 μg/ml RNase; tandem MS; hits: 3 or more peptides, two replicate IPs, not in vector control.

Sequences of proteins named here, by UniProt entry; tags and fusion partners are left off.
UniProt Q7Z2W4: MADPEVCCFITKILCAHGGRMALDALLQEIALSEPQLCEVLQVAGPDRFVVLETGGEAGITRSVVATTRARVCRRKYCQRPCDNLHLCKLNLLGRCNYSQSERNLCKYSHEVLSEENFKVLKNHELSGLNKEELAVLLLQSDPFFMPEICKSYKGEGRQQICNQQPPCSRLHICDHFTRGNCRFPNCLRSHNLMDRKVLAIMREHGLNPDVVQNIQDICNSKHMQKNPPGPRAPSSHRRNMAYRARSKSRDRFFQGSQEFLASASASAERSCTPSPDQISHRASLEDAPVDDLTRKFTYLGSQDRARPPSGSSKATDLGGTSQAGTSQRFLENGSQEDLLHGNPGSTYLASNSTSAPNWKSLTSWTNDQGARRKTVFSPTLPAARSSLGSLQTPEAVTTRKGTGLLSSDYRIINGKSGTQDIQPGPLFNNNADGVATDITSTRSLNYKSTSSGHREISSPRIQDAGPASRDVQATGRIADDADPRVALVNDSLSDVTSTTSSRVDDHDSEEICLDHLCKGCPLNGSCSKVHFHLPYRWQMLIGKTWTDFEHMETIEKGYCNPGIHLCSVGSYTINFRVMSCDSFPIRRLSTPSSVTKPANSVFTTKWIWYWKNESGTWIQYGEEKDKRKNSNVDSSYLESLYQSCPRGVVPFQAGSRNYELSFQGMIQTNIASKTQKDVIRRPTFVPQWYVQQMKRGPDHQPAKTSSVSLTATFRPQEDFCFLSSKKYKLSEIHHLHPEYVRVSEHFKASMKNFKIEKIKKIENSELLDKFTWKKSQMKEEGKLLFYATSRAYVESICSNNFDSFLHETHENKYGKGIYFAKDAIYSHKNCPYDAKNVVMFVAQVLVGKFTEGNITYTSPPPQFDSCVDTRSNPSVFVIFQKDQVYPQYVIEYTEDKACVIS

No constants are given. Whether binding was seen depends on the method and setting. Binding seen in cells or lysates may run through a third protein. These calls come from enrichment with a bait or labelling near it, and not all partners need be listed.

B1: YTH domain containing 2 (protein, UniProt Q9H6S0 1-1430)
chain: MSRPSSVSPRQPAPGGGGGGGPSPCGPGGGGRAKGLKDIRIDEEVKIAVNIALERFRYGDQREMEFPSSLTSTERAFIHRLSQSLGLVSKSKGKGANRYLTVKKKDGSETAHAMMTCNLTHNTKHAVRSLIQRFPVTNKERTELLPKTERGNVFAVEAENREMSKTSGRLNNGIPQIPVKRGESEFDSFRQSLPVFEKQEEIVKIIKENKVVLIVGETGSGKTTQIPQFLLDDCFKNGIPCRIFCTQPRRLAAIAVAERVAAERRERIGQTIGYQIRLESRVSPKTLLTFCTNGVLLRTLMAGDSTLSTVTHVIVDEVHERDRFSDFLLTKLRDLLQKHPTLKLILSSAALDVNLFIRYFGSCPVIYIQGRPFEVKEMFLEDILRTTGYTNKEMLKYKKEKQQEEKQQTTLTEWYSAQENSFKPESQRQRTVLNVTDEYDLLDDGGDAVFSQLTEKDVNCLEPWLIKEMDACLSDIWLHKDIDAFAQVFHLILTENVSVDYRHSETSATALMVAAGRGFASQVEQLISMGANVHSKASNGWMALDWAKHFGQTEIVDLLESYSATLEFGNLDESSLVQTNGSDLSAEDRELLKAYHHSFDDEKVDLDLIMHLLYNICHSCDAGAVLIFLPGYDEIVGLRDRILFDDKRFADSTHRYQVFMLHSNMQTSDQKKVLKNPPAGVRKIILSTNIAETSITVNDVVFVIDSGKVKEKSFDALNFVTMLKMVWISKASAIQRKGRAGRCRPGICFRLFSRLRFQNMLEFQTPELLRMPLQELCLHTKLLAPVNCPIADFLMKAPEPPPALIVRNAVQMLKTIDAMDTWEDLTELGYHLADLPVEPHLGKMVLCAVVLKCLDPILTIACTLAYRDPFVLPTQASQKRAAMLCRKRFTAGAFSDHMALLRAFQAWQKARSDGWERAFCEKNFLSQATMEIIIGMRTQLLGQLRASGFVRARGGGDIRDVNTNSENWAVVKAALVAGMYPNLVHVDRENLVLTGPKEKKVRFHPASVLSQPQYKKIPPANGQAAAIKALPTDWLIYDEMTRAHRIANIRCCSAVTPVTILVFCGPARLASNALQEPSSFRVDGIPNDSSDSEMEDKTTANLAALKLDEWLHFTLEPEAASLLLQLRQKWHSLFLRRMRAPSKPWSQVDEATIRAIIAVLSTEEQSAGLQQPSGIGQRPRPMSSEELPLASSWRSNNSRKSSADTEFSDECTTAERVLMKSPSPALHPPQKYKDRGILHPKRGTEDRSDQSSLKSTDSSSYPSPCASPSPPSSGKGSKSPSPRPNMPVRYFIMKSSNLRNLEISQQKGIWSTTPSNERKLNRAFWESSIVYLVFSVQGSGHFQGFSRMSSEIGREKSQDWGSAGLGGVFKVEWIRKESLPFQFAHHLLNPWNDNKKVQISRDGQELEPLVGEQLLQLWERLPLGEKNTTD
As for B1, the binding result is on record as “binds”.

B2: GTPase activating protein (SH3 domain) binding protein 2 (protein, UniProt Q9UN86-2 1-449)
chain: MVMEKPSPLLVGREFVRQYYTLLNKAPEYLHRFYGRNSSYVHGGVDASGKPQEAVYGQNDIHHKVLSLNFSECHTKIRHVDAHATLSDGVVVQVMGLLSNSGQPERKFMQTFVLAPEGSVPNKFYVHNDMFRYEDEVFGDSEPELDEESEDEVEEEQEERQPSPEPVQENANSGYYEAHPVTNGIEEPLEESSHEPEPEPESETKTEELKPQVEEKNLEELEEKSTTPPPAEPVSLPQEPPKPRVEAKPEVQSQPPRVREQRPRERPGFPPRGPRPGRGDMEQNDSDNRRIIRYPDSHQLFVGNLPHDIDENELKEFFMSFGNVVELRINTKGVGGKLPNFGFVVFDDSEPVQRILIAKPIMFRGEVRLNVEEKKTRAARERETRGGGDDRRDIRRNDRGPGGPRGIVGGGMMRDRDGRGPPPRGGMAQKLGSGRGTGQMEGRFTGQRR
As for B2, the binding entry was “binds”.

These data come from PMC4441479.
